{"source": "patent US8106236B2", "about": "“Triaryl compounds and derivates thereof” (Ortho-McNeil Pharmaceutical, Inc., priority 2006, dated 2012)", "note": "Some entries share one result that the patent states for a list of compounds. Some compounds share one range, which may span the group rather than tell each member.", "data": [{"target": "γ-secretase (Homo sapiens, UniProt P49768)", "assay": "Screening for γ-secretase-modulating activity, Aβ42 in SKNBE2 cells carrying APP 695 wild type", "assay_type": "cell-based", "conditions": "read-out: IC50-Values for γ-Secretase Activity, activity range", "procedure": "Screening of the Compounds of the Invention for γ-Secretase-Modulating Activity\nCells were grown to near confluency.", "units": {"IC50": "µM"}, "values": [{"smiles": "O=C(O)Cc1cc(-c2ccc(Cl)cc2)cc(-c2ccc(Cl)cc2)c1", "note": "[example v, (4,4″-Dichloro-[1,1′;3′,1″]terphenyl-5′-yl)-acetic acid]", "IC50": "1 to 10"}, {"smiles": "O=C(O)c1cc(-c2ccc(Cl)cc2)cc(-c2ccc(Cl)cc2)c1", "note": "[example xvi, 4,4″-Dichloro-[1,1′;3′,1″]terphenyl-5′-carboxylic acid]", "IC50": "1 to 10"}, {"smiles": "Clc1ccc(-c2cc(-c3ccc(Cl)cc3)cc(-c3nn[nH]n3)c2)cc1", "note": "[example xvii, 5-(4,4″-Dichloro-[1,1′;3′,1″]terphenyl-5′-yl)-1H-tetrazole]", "IC50": "1 to 10"}]}]}
